Results taken from the supplement of paper PMC10849652.
The list shows a part of the results.

Protein sequences, listed by entry. Tags and fused reporters are not part of them. Lines headed by an entry give the natural chain unless they say otherwise; changes in a name come on top.
UniProt P56749: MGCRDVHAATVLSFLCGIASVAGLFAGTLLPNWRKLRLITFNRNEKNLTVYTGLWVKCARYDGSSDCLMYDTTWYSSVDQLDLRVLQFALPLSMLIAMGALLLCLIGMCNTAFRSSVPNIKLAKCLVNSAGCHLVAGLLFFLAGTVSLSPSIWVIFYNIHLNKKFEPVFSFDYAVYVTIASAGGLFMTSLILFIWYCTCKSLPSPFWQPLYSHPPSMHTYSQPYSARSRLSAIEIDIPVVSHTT
UniProt O95628: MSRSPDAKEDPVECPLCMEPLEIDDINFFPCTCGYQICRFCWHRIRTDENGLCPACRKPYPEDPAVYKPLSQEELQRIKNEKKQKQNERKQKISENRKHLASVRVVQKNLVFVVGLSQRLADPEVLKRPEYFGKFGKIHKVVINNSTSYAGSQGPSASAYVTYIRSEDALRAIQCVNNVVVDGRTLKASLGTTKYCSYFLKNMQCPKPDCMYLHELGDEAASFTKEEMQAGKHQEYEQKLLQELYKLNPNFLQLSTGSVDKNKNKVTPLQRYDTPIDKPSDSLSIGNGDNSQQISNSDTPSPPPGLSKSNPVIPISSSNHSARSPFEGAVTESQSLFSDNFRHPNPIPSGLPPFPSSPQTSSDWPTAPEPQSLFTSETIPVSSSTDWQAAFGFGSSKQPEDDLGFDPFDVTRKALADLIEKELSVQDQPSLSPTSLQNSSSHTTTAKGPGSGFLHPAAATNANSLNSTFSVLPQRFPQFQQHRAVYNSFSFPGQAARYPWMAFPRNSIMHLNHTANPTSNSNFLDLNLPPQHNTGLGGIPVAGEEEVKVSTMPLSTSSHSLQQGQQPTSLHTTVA
UniProt Q96DG6: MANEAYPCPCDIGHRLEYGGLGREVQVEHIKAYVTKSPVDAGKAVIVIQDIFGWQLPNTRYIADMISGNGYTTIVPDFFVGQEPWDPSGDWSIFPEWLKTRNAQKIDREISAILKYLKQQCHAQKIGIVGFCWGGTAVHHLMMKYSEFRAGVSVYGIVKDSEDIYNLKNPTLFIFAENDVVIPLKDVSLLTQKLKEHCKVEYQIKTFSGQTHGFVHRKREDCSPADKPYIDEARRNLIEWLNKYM
UniProt Q8NFW8: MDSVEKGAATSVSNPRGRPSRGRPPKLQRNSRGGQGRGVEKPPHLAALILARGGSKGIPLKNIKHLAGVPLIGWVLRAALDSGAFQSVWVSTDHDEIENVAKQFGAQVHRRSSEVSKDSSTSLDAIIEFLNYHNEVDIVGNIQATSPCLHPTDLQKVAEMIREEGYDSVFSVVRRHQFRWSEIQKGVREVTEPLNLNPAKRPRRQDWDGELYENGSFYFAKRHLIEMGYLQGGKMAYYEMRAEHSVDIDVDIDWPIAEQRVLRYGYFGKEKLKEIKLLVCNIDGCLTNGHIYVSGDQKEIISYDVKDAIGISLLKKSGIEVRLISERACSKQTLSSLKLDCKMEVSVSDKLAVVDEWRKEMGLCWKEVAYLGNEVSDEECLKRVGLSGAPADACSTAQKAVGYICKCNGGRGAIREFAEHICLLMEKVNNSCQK
UniProt Q9NZZ3: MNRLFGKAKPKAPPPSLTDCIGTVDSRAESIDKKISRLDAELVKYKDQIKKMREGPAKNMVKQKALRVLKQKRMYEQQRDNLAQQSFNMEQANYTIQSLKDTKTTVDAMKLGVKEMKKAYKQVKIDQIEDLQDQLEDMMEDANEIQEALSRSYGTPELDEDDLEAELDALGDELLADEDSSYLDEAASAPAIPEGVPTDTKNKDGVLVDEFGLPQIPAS
UniProt Q8N129: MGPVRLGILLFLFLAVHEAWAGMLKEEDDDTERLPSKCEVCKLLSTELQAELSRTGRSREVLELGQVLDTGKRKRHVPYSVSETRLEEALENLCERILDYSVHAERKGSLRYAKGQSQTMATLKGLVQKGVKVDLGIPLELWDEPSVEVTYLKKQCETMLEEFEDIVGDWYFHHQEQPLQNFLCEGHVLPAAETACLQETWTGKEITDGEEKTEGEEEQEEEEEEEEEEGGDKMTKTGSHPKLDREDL
UniProt P54105: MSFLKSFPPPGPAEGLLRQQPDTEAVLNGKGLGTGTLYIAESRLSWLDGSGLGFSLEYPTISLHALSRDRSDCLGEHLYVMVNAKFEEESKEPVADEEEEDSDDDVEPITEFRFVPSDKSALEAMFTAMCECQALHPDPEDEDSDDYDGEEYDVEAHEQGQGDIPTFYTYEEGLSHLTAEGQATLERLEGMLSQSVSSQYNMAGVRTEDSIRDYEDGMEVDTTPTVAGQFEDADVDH
UniProt G5E9Z2: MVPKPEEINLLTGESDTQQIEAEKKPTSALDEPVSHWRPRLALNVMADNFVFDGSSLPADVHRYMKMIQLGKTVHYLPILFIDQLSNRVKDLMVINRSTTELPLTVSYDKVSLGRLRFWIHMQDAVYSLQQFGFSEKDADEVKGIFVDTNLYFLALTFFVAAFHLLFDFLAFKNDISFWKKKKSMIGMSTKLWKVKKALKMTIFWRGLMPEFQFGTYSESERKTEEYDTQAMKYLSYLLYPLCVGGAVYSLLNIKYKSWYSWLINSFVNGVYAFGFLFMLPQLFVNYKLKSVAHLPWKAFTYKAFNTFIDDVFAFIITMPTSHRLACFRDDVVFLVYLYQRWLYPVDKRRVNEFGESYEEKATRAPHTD
UniProt Q9H9A5, whole entry, looked up: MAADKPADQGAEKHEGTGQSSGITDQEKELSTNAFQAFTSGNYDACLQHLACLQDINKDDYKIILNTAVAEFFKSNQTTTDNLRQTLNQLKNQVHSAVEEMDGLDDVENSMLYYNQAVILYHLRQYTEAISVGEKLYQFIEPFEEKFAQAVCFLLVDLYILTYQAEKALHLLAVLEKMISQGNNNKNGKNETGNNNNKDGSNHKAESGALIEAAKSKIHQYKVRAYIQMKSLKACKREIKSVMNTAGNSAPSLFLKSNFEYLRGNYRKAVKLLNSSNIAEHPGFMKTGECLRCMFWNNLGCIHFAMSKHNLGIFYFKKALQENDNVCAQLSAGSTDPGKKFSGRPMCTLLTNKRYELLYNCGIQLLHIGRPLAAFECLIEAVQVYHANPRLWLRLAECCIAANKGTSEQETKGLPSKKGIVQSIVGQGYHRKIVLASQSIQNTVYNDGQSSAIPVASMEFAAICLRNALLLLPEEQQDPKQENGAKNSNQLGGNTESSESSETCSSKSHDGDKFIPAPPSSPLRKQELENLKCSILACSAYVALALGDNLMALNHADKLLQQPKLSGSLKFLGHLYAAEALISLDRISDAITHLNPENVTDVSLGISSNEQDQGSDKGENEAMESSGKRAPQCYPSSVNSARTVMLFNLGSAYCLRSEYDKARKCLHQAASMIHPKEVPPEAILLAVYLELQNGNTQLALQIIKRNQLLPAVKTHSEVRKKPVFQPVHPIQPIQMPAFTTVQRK
UniProt Q14677: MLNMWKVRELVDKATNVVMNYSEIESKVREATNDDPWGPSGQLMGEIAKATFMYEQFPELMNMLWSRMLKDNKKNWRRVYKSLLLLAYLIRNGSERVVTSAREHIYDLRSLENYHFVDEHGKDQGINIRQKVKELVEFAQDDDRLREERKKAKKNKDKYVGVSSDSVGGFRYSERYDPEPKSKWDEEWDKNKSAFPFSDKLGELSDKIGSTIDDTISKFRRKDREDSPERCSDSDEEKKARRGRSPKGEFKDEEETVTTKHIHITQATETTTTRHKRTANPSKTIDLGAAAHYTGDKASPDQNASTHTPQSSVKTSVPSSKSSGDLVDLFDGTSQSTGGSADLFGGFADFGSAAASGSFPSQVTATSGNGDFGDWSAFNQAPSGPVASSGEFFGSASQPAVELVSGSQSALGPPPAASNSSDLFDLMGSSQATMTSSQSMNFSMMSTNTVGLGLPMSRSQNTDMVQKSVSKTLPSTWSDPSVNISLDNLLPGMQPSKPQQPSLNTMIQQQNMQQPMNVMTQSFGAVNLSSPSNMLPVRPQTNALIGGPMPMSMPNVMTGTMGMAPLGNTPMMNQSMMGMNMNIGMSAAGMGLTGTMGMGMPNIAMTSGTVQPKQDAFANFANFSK
UniProt P30085: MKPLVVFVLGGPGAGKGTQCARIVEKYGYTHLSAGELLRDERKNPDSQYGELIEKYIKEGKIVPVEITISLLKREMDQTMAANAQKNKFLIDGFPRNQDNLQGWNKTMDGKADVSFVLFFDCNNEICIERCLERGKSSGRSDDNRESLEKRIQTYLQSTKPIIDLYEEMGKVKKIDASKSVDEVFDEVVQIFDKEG
UniProt P06732: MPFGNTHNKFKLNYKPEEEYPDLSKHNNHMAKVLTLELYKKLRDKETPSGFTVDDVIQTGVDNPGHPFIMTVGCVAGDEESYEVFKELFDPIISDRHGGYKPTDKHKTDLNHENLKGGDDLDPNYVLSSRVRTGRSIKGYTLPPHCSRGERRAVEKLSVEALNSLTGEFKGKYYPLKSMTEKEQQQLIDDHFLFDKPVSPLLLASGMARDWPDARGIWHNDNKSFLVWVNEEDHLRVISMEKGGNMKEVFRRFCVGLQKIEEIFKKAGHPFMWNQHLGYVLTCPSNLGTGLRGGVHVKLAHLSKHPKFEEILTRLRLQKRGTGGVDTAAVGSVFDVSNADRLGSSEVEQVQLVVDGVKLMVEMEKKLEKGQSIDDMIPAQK
UniProt Q9UIV1, whole entry, looked up: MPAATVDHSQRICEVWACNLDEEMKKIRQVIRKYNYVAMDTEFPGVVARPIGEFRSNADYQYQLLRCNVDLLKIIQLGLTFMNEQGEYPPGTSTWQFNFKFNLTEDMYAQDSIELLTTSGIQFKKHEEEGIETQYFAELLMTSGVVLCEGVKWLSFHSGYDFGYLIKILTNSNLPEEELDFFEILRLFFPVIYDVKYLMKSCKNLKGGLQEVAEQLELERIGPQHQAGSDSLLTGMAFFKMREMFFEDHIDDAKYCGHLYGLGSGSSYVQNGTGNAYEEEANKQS
UniProt Q9NPF2: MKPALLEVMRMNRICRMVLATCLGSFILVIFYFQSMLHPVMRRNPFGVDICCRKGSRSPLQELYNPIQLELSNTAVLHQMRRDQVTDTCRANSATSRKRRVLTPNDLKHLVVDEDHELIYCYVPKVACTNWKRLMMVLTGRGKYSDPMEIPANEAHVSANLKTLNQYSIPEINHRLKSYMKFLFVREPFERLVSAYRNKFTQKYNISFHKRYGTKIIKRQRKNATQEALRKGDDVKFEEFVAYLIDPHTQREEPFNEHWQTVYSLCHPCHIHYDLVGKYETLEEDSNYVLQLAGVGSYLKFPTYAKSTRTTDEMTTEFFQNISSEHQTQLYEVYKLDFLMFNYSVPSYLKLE
UniProt O96005: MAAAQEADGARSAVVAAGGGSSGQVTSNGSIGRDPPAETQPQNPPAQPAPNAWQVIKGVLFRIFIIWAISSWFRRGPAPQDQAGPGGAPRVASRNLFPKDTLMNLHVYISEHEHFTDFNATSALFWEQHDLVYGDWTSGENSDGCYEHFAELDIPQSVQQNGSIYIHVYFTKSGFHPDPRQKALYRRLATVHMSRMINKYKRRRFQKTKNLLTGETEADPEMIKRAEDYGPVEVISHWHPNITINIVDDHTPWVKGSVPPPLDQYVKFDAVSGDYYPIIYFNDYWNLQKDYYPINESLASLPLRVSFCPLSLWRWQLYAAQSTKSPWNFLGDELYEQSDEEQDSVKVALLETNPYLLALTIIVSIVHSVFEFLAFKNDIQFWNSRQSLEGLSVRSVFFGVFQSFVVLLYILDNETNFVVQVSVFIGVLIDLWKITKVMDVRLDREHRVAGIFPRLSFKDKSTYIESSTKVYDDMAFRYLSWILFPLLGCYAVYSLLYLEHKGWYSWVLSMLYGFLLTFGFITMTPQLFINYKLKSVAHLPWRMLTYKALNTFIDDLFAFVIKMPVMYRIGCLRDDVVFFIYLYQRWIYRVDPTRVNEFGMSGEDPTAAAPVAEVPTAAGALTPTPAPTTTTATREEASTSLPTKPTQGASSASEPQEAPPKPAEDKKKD
UniProt Q99653: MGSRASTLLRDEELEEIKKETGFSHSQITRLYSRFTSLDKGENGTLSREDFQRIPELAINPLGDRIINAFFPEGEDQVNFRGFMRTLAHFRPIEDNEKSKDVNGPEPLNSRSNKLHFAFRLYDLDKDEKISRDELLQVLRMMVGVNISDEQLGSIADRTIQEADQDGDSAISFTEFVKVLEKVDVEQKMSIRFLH
UniProt P0C7P0: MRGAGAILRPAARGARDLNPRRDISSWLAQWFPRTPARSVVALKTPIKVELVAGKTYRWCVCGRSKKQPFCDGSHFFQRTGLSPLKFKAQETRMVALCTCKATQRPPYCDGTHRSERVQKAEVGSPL
UniProt P61024, whole entry, looked up: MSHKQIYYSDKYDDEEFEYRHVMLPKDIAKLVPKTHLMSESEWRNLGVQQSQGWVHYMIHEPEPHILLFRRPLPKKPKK
UniProt Q14011: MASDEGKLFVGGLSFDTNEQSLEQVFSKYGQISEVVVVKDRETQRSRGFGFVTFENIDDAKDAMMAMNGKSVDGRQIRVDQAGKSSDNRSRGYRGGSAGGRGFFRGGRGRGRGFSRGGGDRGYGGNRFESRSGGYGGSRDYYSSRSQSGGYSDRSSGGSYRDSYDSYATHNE
UniProt Q9P003: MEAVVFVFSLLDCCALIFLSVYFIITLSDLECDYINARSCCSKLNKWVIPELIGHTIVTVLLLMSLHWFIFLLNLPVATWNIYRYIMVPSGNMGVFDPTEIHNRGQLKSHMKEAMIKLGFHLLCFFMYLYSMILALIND

How the values were obtained:
Test in all cases: log2 fold change, soluble protein after heating vs DMSO (PISA); higher = thermal stabilisation; K562 cells, 10 uM, 30 min; active = over 0.2 and 3.5 SD of the protein, either way, in both replicates (recomputed)
[1] = compound: C1=CC=C(C=C1)[C@H](COC2=CC3=C(C=C2)NC(=O)N3)NC(=O)C4=CC=CN(C4=O)CC5=CC(=C(C=C5)F)F
Summary of the method: (§1)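 K562 cells (2×10^6 cells/mL) were treated with 10 μM compound for 30 min, and aliquots were heated for 3 min over 48°C-58°C. Pooled aliquots were extracted in PBS with 0.5% NP-40 at 4°C, and the supernatant after 21,000xg for 90 min was measured by TMTpro 16plex LC-MS/MS with channel sums equalised. Reported thermal stability, relative to control samples and from duplicates, is a log2 fold change.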

[2] = compound: CC1=C(SC2=C1C(=N[C@H](C3=NN=C(N32)C)CC(=O)N)C4=CC=C(C=C4)Cl)C
Summary of the method: as §1

[3] = compound: CC1=C2C(=CC=C1)N=C(N(C2=O)C3=CC=CC=C3C)CN4C=NC5=C(N=CN=C54)N
Summary of the method: as §1

[4] = compound: Cc1sc2c(c1C)C(c1ccc(Cl)cc1)=N[C@@H](CC(=O)OC(C)(C)C)c1nnc(C)n1-2
Summary of the method: as §1

[5] = compound: c1ccc([C@@H]2C[C@H]2NC2CCNCC2)cc1
Summary of the method: as §1

Measured: log2 fold change

CLDN12 (UniProt P56749)
inactive: [1] -0.196

CIAO3 (UniProt Q9H6Q4)
inactive: [1] 0.007 | [2] 0.079 | [3] 0.033 | [4] -0.034 | [5] -0.051

CNOT11 (UniProt Q9UKZ1)
inactive: [1] -0.01 | [2] 0.017 | [3] -0.022 | [4] 0.157 | [5] 0.014

CNOT4 isoform 9 (UniProt O95628)
inactive: [1] 0.009 | [2] -0.09 | [3] 0.147 | [4] -0.067 | [5] -0.055

CLPP (UniProt Q16740)
inactive: [1] 0.037 | [2] 0.153 | [3] 0.093 | [4] -0.124 | [5] 0.008

CLUH, A0A494C0R8
inactive: [1] -0.121 | [2] -0.004 | [3] 0.025 | [4] 0.152 | [5] 0.096

CMBL (UniProt Q96DG6)
inactive: [1] 0.025 | [2] 0.062 | [3] 0.052 | [4] -0.023 | [5] 0.003

CMAS (UniProt Q8NFW8)
inactive: [1] 0.032 | [2] -0.034 | [3] -0.053 | [4] 0.076 | [5] -0.016

CHMP5 (UniProt Q9NZZ3)
inactive: [1] 0.002 | [2] -0.045 | [3] 0 | [4] -0.008 | [5] 0.038

CNPY4 (UniProt Q8N129)
inactive: [1] -0.034 | [2] -0.011 | [3] 0.014 | [4] -0.045 | [5] -0.015

CMC1 (UniProt Q7Z7K0)
inactive: [1] -0.062 | [2] -0.123 | [3] -0.225 | [4] 0.115 | [5] 0.147

CIR1 (UniProt Q86X95)
inactive: [1] -0.075 | [2] -0.286 | [3] -0.241 | [4] 0.198 | [5] 0.217

CNBP isoform 6 (UniProt P62633)
inactive: [1] -0.003 | [2] -0.151 | [3] -0.052 | [4] 0.061 | [5] 0.106

CHST12 (UniProt Q9NRB3)
inactive: [1] 0.162 | [2] 0.066 | [3] 0.198 | [4] 0.018 | [5] -0.107

CLASP2 isoform 3 (UniProt O75122)
inactive: [1] -0.065 | [2] 0.053 | [3] 0.091 | [4] -0.024 | [5] -0.014

CMIP (UniProt Q8IY22)
inactive: [1] -0.04

CLPX (UniProt O76031)
inactive: [1] 0.011 | [2] -0.02 | [3] 0.013 | [4] -0.035 | [5] 0.048

CLNS1A (UniProt P54105)
inactive: [1] 0.009 | [2] 0.062 | [3] -0.014 | [4] 0.018 | [5] -0.03

CNP (UniProt P09543)
inactive: [1] -0.025 | [2] 0.06 | [3] 0.091 | [4] -0.037 | [5] -0.012

CLPTM1L (UniProt G5E9Z2)
inactive: [1] -0.22 | [2] 0.148 | [3] -0.012 | [4] -0.07 | [5] -0.1

CNOT10 isoform 6 (UniProt Q9H9A5)
inactive: [1] 0.007 | [2] -0.11 | [3] 0.019 | [4] 0.004 | [5] 0.024

CLCC1 (UniProt Q96S66)
inactive: [1] 0.014 | [2] 0.07 | [3] 0.026 | [4] -0.012 | [5] -0.002

CLCN3 isoform 2 (UniProt P51790)
inactive: [1] 0.044 | [2] -0.006 | [3] -0.014 | [4] -0.021 | [5] 0.013

CLPB isoform 2 (UniProt Q9H078)
inactive: [1] -0.018 | [2] 0.04 | [3] -0.01 | [4] -0.025 | [5] -0.022

CLEC3B (UniProt P05452)
inactive: [1] -0.101 | [2] -0.086 | [3] -0.027 | [4] -0.077 | [5] 0.21

COL15A1 (UniProt P39059)
inactive: [1] -0.031 | [2] -0.008 | [3] -0.126 | [4] 0.059 | [5] 0.104

CIB1 isoform 2 (UniProt Q99828)
inactive: [1] 0.01 | [2] 0.072 | [3] -0.026 | [4] 0.013 | [5] -0.016

CHMP6 (UniProt Q96FZ7)
inactive: [1] -0.012 | [2] -0.031 | [3] 0.024 | [4] -0.015 | [5] -0.06

CNBP isoform 4 (UniProt P62633)
inactive: [1] 0.02

CLEC16A (UniProt Q2KHT3)
inactive: [1] 0.021 | [2] -0.014 | [3] -0.014 | [4] 0.025 | [5] 0.028

CIZ1 (UniProt Q9ULV3)
inactive: [1] 0.021 | [2] 0.047 | [3] 0.025 | [4] 0.062 | [5] 0.029

CLINT1 isoform 3 (UniProt Q14677)
inactive: [1] 0.053 | [2] -0.039 | [3] -0.01 | [4] 0.046 | [5] 0.044

CMPK1 (UniProt P30085)
inactive: [1] 0.012 | [2] 0.074 | [3] -0.026 | [4] 0.024 | [5] -0.011

CKM (UniProt P06732)
inactive: [1] -0.078 | [2] 0.051 | [3] 0.017 | [4] -0.015 | [5] -0.023

CINP isoform 3 (UniProt Q9BW66)
inactive: [1] 0.087 | [2] 0.012 | [3] -0.001 | [4] 0.016 | [5] 0

COA7 (UniProt Q96BR5)
inactive: [1] -0.007 | [2] -0.021 | [3] -0.022 | [4] -0.038 | [5] 0.049

CLDND1 (UniProt Q9NY35)
inactive: [1] 0.03 | [2] -0.201 | [3] -0.071 | [4] 0.008 | [5] 0

CNOT7 (UniProt Q9UIV1)
inactive: [1] -0.024 | [2] -0.053 | [3] 0.068 | [4] -0.032 | [5] 0.002

CHST11 (UniProt Q9NPF2)
inactive: [1] 0.018 | [2] -0.061 | [3] 0.055 | [4] 0.007 | [5] -0.139

CMSS1 (UniProt Q9BQ75)
inactive: [1] 0.04 | [2] 0.106 | [3] 0.084 | [4] 0.186 | [5] -0.086

CLPTM1 (UniProt O96005)
inactive: [1] 0.021 | [2] 0.022 | [3] 0.059 | [4] 0.021 | [5] -0.041

CHPF (UniProt Q8IZ52)
inactive: [1] 0.15 | [2] 0.063 | [3] -0.174 | [4] -0.281 | [5] 0.138

CKMT2 (UniProt P17540)
inactive: [1] 0.084 | [2] 0.037 | [3] 0.091 | [4] 0.056 | [5] 0.027

CHP1 (UniProt Q99653)
inactive: [1] 0.022 | [2] 0.016 | [3] -0.058 | [4] -0.057 | [5] -0.015

CLCN7 (UniProt P51798)
inactive: [1] -0.018 | [2] 0.024 | [3] -0.054 | [4] 0.024 | [5] -0.032

CISD3 (UniProt P0C7P0)
inactive: [1] 0.105 | [2] 0.082 | [3] 0.029 | [4] -0.089 | [5] 0.001

Reprinted at random: 3 entries already listed
CMAS (UniProt Q8NFW8)
inactive: [1] 0.032 | [2] -0.034 | [3] -0.053 | [4] 0.076 | [5] -0.016

CHMP6 (UniProt Q96FZ7)
inactive: [1] -0.012 | [2] -0.031 | [3] 0.024 | [4] -0.015 | [5] -0.06

CIAO3 (UniProt Q9H6Q4)
inactive: [1] 0.007 | [2] 0.079 | [3] 0.033 | [4] -0.034 | [5] -0.051

Further records

CKS1B (UniProt P61024)
inactive: [1] -0.004 | [2] 0.056 | [3] 0.024 | [4] -0.067 | [5] -0.02

CLSPN (UniProt Q9HAW4)
inactive: [1] 0.002 | [2] -0.009 | [3] -0.043 | [4] -0.004 | [5] 0.036

CIRBP (UniProt Q14011)
inactive: [1] 0.149 | [2] -0.073 | [3] -0.438 | [4] 0.262 | [5] 0.073

CNIH4 (UniProt Q9P003)
inactive: [1] 0.017 | [2] 0.001 | [3] -0.113 | [4] -0.139 | [5] 0.009

COA1 (UniProt Q9GZY4)
inactive: [1] 0.03 | [2] 0.035 | [3] 0.04 | [4] 0.04 | [5] 0.065

CHORDC1 (UniProt Q9UHD1)
inactive: [1] -0.034 | [2] 0.063 | [3] 0.016 | [4] -0.045 | [5] -0.067

CLTC (UniProt Q00610)
inactive: [1] -0.008 | [2] 0.016 | [3] -0.025 | [4] -0.009 | [5] -0.016

CIAPIN1 (UniProt Q6FI81)
inactive: [1] -0.026 | [2] 0.056 | [3] 0.051 | [4] -0.014 | [5] -0.027

CLIC2 (UniProt O15247)
inactive: [1] -0.057 | [2] 0.037 | [3] 0.115 | [4] -0.032 | [5] -0.019
